From patent US20240382563A1 come the findings set out here.

By UniProt entry, the sequences of proteins in these tests, tags left out. Residues count along the entry.
UniProt Q62432, residues 2-467: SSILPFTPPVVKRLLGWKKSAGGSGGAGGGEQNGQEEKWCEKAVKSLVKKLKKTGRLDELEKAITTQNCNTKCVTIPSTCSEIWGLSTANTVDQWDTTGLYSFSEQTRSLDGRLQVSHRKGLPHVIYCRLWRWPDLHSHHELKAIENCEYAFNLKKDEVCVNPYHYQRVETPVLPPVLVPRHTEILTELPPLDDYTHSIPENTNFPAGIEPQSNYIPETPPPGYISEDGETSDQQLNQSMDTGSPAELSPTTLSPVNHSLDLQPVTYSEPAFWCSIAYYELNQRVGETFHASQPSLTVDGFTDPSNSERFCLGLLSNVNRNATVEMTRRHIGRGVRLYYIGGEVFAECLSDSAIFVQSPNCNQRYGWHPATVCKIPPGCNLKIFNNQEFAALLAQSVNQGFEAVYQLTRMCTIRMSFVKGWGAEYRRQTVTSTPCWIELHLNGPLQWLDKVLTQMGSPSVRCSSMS
UniProt Q8BUN5, residues 2-425: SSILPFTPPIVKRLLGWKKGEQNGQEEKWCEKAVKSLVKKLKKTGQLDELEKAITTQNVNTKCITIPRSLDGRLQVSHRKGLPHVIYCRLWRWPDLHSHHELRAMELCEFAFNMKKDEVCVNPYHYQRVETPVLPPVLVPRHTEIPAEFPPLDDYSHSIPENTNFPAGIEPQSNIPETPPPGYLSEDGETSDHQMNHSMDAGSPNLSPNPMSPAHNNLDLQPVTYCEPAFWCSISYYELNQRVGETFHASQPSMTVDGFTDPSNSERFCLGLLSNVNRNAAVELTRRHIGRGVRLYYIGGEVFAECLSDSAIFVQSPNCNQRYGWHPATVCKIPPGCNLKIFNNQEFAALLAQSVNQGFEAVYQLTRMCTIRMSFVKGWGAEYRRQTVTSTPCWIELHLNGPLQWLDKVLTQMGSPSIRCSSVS

In assay [1] the target is T1, RB (retinoblastoma polypeptide), endogenous mouse protein in MEFs (mouse) (UniProt P13405).
T1 sequence (looked up): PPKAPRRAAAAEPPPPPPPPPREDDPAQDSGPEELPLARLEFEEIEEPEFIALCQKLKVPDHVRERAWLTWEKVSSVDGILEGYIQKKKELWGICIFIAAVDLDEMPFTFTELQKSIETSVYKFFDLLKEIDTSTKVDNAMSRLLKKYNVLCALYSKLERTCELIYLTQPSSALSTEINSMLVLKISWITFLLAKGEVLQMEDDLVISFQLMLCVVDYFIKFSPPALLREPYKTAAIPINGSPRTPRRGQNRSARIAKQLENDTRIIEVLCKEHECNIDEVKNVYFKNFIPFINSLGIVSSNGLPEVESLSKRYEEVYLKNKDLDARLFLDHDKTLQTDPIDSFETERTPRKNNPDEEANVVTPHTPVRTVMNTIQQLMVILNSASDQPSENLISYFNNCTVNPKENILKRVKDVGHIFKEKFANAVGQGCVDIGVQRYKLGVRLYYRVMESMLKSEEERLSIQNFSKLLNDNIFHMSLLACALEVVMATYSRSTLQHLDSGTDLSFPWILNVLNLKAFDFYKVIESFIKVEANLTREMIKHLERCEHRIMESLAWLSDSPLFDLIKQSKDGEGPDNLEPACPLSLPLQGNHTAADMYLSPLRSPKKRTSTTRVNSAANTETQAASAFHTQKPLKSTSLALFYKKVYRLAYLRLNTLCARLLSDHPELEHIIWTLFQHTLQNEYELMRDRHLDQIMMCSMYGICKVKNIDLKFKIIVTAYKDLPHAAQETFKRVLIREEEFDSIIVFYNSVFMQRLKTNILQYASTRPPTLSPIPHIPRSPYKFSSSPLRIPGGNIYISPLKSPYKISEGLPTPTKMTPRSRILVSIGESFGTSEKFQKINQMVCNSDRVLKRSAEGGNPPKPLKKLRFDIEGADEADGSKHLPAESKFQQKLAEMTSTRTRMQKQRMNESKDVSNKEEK
In words: co-immunoprecipitation from IR-senescent MEFs, western blot probed for RB. On the technique in general: In western blotting, separated proteins are transferred to a membrane and probed.

Assay [2] has as its target T1, RB (retinoblastoma polypeptide), endogenous mouse protein in MEFs (mouse). In words: co-immunoprecipitation from chromatin fraction of D4 P21-OE MEFs, western blot probed for RB.

Results are given in words; binding and its absence hold for the method and conditions named. Binding seen in cells or lysates may run through a third protein. Some binding calls cover weakened binding; strength is not graded here.

With “SMAD2, endogenous mouse protein in MEFs (from UniProt Q62432 2-467)”, the binding result in assay [1] and in assay [2] was “binds” each time.

With “SMAD3, endogenous mouse protein in MEFs (from UniProt Q8BUN5 2-425)”, the binding result in assay [1] and in assay [2] was “binds” each time.

B1: STAT6, endogenous mouse protein in MEFs (protein, UniProt P52633 2-837, looked up)
chain: SLWGLISKMSPEKLQRLYVDFPQRLRHLLADWLESQPWEFLVGSDAFCYNMASALLSATVQRLQATAGEQGKGNSILPHISTLESIYQRDPLKLVATIRQILQGEKKAVIEEFRHLPGPFHRKQEELKFTTALGRLQHRVRETRLLRESLQQGAKTGQVSLQNLIDPPVNGPGPSEDLATMLQGTVGDLEATQALVLKRIQIWKRQQQLAGNGTPFEESLAGLQERCESLVEIYSQLQQEIGAASGELEPKTRASLISRLDEVLRTLVTSSFLVEKQPPQVLKTQTKFQAGVRFLLGLQFLGTSAKPPMVRADMVTEKQARELSLAQGPGTGVESTGEIMNNTVPLENSIPSNCCSALFKNLLLKKIKRCERKGTESVTEEKCAVLFSTSFTLGPNKLLIQLQALSLPLVVIVHGNQDNNAKATILWDNAFSEMDRVPFVVAERVPWEKMCETLNLKFMAEVGTSRGLLPEHFLFLAQKIFNDNSLSVEAFQHRCVSWSQFNKEILLGRGFTFWQWFDGVLDLTKRCLRSYWSDRLIIGFISKQYVTSLLLNEPDGTFLLRFSDSEIGGITIAHVIRGQDGSSQIENIQPFSAKDLSIRSLGDRIRDLAQLKNLYPKKPKDEAFRSHYKPEQMGKDGRGYVSTTIKMTVERDQPLPTPEPQMPAMVPPYDLGMAPDASMQLSSDMGYPPQSIHSFQSLEESMSVLPSFQEPHLQMPPNMSQITMPFDQPHPQGLLQCQSQEHAVSSPEPMLCSDVTMVEDSCLTQPVGGFPQGTWVSEDMYPPLMPPTEQDLTKLLLENQGEAGGSLGSQPLLQPSPYGQSGISLSHLDLRTNPSW
With B1, the binding result in assay [1] and in assay [2] was “binds” throughout.

B2: STAT1, endogenous mouse protein in MEFs (protein, UniProt P42225 2-749, looked up)
chain: SQWFELQQLDSKFLEQVHQLYDDSFPMEIRQYLAQWLEKQDWEHAAYDVSFATIRFHDLLSQLDDQYSRFSLENNFLLQHNIRKSKRNLQDNFQEDPVQMSMIIYNCLKEERKILENAQRFNQAQEGNIQNTVMLDKQKELDSKVRNVKDQVMCIEQEIKTLEELQDEYDFKCKTSQNREGEANGVAKSDQKQEQLLLHKMFLMLDNKRKEIIHKIRELLNSIELTQNTLINDELVEWKRRQQSACIGGPPNACLDQLQTWFTIVAETLQQIRQQLKKLEELEQKFTYEPDPITKNKQVLSDRTFLLFQQLIQSSFVVERQPCMPTHPQRPLVLKTGVQFTVKSRLLVKLQESNLLTKVKCHFDKDVNEKNTVKGFRKFNILGTHTKVMNMEESTNGSLAAELRHLQLKEQKNAGNRTNEGPLIVTEELHSLSFETQLCQPGLVIDLETTSLPVVVISNVSQLPSGWASILWYNMLVTEPRNLSFFLNPPCAWWSQLSEVLSWQFSSVTKRGLNADQLSMLGEKLLGPNAGPDGLIPWTRFCKENINDKNFSFWPWIDTILELIKNDLLCLWNDGCIMGFISKERERALLKDQQPGTFLLRFSESSREGAITFTWVERSQNGGEPDFHAVEPYTKKELSAVTFPDIIRNYKVMAAENIPENPLKYLYPNIDKDHAFGKYYSRPKEAPEPMELDDPKRTGYIKTELISVSEVHPSRLQTTDNLLPMSPEEFDEMSRIVGPEFDSMMSTV
As to B2, the binding entry in assay [1] and in assay [2] was “binds” throughout.
